Two substances from paper PMC3364953 can be followed below.

This assay addresses H3-HA3 (A111C) (budding yeast) (UniProt P61830). Kind of assay: cross-linking; ex vivo cysteine cross-linking in crude yeast lysate or on isolated chromatin pellet; DTNB (also bBBr, BMOE) for 1 hour on ice in 25 mM sodium phosphate pH 7.0, 100 mM KCl, 2.5 mM MgCl2, 0.25% TritonX-100; SDS-PAGE without reducing agent, Western blot with anti-HA (H3) or anti-Myc (Cse4).

No constants are given. Whether binding was seen depends on the method and setting. Binding seen in cells or lysates may run through a third protein.

Take “Cse4-Myc3 (L204C) (from UniProt P36012 1-229)”: the binding entry is reported as “no binding”.
As for “Cse4-Myc6 (L204C) (from UniProt P36012 1-229)”, the binding result is given as “no binding”.
